# Experimental data from publication PMC8384837.
# Changes are numbered by the printed parent chain. The list shows a part of the results. For some assays here: At the low end of the ranking the order means little.
# Experiments:
# Conditions in all cases: yeast three-hybrid, YBZ-1, SC-Leu-His + 0.5 mM 3-AT, 4 days
# [1] = target: T1, PUM1 PUF domain R1-CFK S863C + R864F + Q867K (Homo sapiens) (UniProt Q14671)
# T1 sequence: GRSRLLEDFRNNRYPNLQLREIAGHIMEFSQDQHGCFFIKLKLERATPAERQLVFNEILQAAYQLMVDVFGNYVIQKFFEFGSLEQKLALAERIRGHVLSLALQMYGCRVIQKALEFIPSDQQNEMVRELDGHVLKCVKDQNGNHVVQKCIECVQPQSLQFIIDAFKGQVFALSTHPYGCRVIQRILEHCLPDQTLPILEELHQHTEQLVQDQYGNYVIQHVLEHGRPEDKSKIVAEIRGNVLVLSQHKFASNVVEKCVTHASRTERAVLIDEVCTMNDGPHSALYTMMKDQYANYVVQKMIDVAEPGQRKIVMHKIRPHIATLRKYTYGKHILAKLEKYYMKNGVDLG
# [2] = target: T2, PUM1 PUF domain R1-GCK S863G + R864C + Q867K (Homo sapiens) (UniProt Q14671)
# T2 sequence: T1 sequence with C36G, F37C
# [3] = target: T3, PUM1 PUF domain R1-GCR S863G + R864C + Q867R (Homo sapiens) (UniProt Q14671)
# T3 sequence: T1 sequence with C36G, F37C, K40R
# [4] = target: T4, PUM1 PUF domain R1-GVR S863G + R864V + Q867R (Homo sapiens) (UniProt Q14671)
# T4 sequence: T1 sequence with C36G, F37V, K40R
# [5] = target: T5, PUM1 PUF domain R1-GYR S863G + R864Y + Q867R (Homo sapiens) (UniProt Q14671)
# T5 sequence: T1 sequence with C36G, F37Y, K40R
# [6] = target: T6, PUM1 PUF domain R1-HGR S863H + R864G + Q867R (Homo sapiens) (UniProt Q14671)
# T6 sequence: T1 sequence with C36H, F37G, K40R
# [7] = target: T7, PUM1 PUF domain R1-KFV S863K + R864F + Q867V (Homo sapiens) (UniProt Q14671)
# T7 sequence: T1 sequence with C36K, K40V
# [8] = target: T8, PUM1 PUF domain R1-KRR S863K + Q867R (Homo sapiens) (UniProt Q14671)
# T8 sequence: T1 sequence with C36K, F37R, K40R
# [9] = target: T9, PUM1 PUF domain R1-LKR S863L + R864K + Q867R (Homo sapiens) (UniProt Q14671)
# T9 sequence: T1 sequence with C36L, F37K, K40R
# [10] = target: T10, PUM1 PUF domain R1-MPR S863M + R864P + Q867R (Homo sapiens) (UniProt Q14671)
# T10 sequence: T1 sequence with C36M, F37P, K40R
# [11] = target: T11, PUM1 PUF domain R1-NIS S863N + R864I + Q867S (UniProt Q14671)
# T11 sequence: T1 sequence with C36N, F37I, K40S
# [12] = target: T12, PUM1 PUF domain R1-QFR S863Q + R864F + Q867R (UniProt Q14671)
# T12 sequence: T1 sequence with C36Q, K40R
# [13] = target: T13, PUM1 PUF domain R1-QLR S863Q + R864L + Q867R (Homo sapiens) (UniProt Q14671)
# T13 sequence: T1 sequence with C36Q, F37L, K40R
# [14] = target: T14, PUM1 PUF domain R1-RGV S863R + R864G + Q867V (Homo sapiens) (UniProt Q14671)
# T14 sequence: T1 sequence with C36R, F37G, K40V
# [15] = target: T15, PUM1 PUF domain R1-RKL S863R + R864K + Q867L (Homo sapiens) (UniProt Q14671)
# T15 sequence: T1 sequence with C36R, F37K, K40L
# [16] = target: T16, PUM1 PUF domain R1-RLE S863R + R864L + Q867E (Homo sapiens) (UniProt Q14671)
# T16 sequence: T1 sequence with C36R, F37L, K40E
# [17] = target: T17, PUM1 PUF domain R1-RRM S863R + Q867M (Homo sapiens) (UniProt Q14671)
# T17 sequence: T1 sequence with C36R, F37R, K40M
# [18] = target: T18, PUM1 PUF domain R1-RSV S863R + R864S + Q867V (Homo sapiens) (UniProt Q14671)
# T18 sequence: T1 sequence with C36R, F37S, K40V
# [19] = target: T19, PUM1 PUF domain R1-TWR S863T + R864W + Q867R (Homo sapiens) (UniProt Q14671)
# T19 sequence: T1 sequence with C36T, F37W, K40R
# [20] = target: T20, PUM1 PUF domain R1-YWR S863Y + R864W + Q867R (Homo sapiens) (UniProt Q14671)
# T20 sequence: T1 sequence with C36Y, F37W, K40R
sequence,measurement,setting,value
GGCUAGAACUAGUGGAUCCCCCGGCGCCCGGCGGCUCGAGCCCGGGUAAGUGUAAAUGGUCUGCAUGCCGCCGGGCGCCAUGCCUGCAGGUCGACUCUAGAAAACAUG,binding signal (log2 enrichment (interaction score)),[1],0.08
same,binding signal (log2 enrichment (interaction score)),[2],0.26
same,binding signal (log2 enrichment (interaction score)),[3],0.78
same,binding signal (log2 enrichment (interaction score)),[4],1.24
same,binding signal (log2 enrichment (interaction score)),[5],-0.1
same,binding signal (log2 enrichment (interaction score)),[6],-0.05
same,binding signal (log2 enrichment (interaction score)),[7],-0.13
same,binding signal (log2 enrichment (interaction score)),[8],-0.02
same,binding signal (log2 enrichment (interaction score)),[9],-0.22
same,binding signal (log2 enrichment (interaction score)),[10],0.06
same,binding signal (log2 enrichment (interaction score)),[11],-2.23
same,binding signal (log2 enrichment (interaction score)),[12],-2.13
same,binding signal (log2 enrichment (interaction score)),[13],0.26
same,binding signal (log2 enrichment (interaction score)),[14],-0.01
same,binding signal (log2 enrichment (interaction score)),[15],0.78
same,binding signal (log2 enrichment (interaction score)),[16],0.82
same,binding signal (log2 enrichment (interaction score)),[17],0.89
same,binding signal (log2 enrichment (interaction score)),[18],0.74
same,binding signal (log2 enrichment (interaction score)),[19],-0.22
same,binding signal (log2 enrichment (interaction score)),[20],0.26

# Retrieved one by one from the list above (two):
sequence,measurement,setting,value
GGCUAGAACUAGUGGAUCCCCCGGCGCCCGGCGGCUCGAGCCCGGGUAAGUGUAAAUGGUCUGCAUGCCGCCGGGCGCCAUGCCUGCAGGUCGACUCUAGAAAACAUG,binding signal (log2 enrichment (interaction score)),[11],-2.23
same,binding signal (log2 enrichment (interaction score)),[20],0.26
